{
  "source": "patent US10786451B2",
  "about": "“Process for preparing a dry powder formulation comprising an anticholinergic, a corticosteroid and a beta-adrenergic” (CHIESI FARMACEUTICI S.P.A., priority 2015, dated 2020)",
  "key": {"[1]": {"assay": "Particle size (volume diameter) by laser diffraction, Malvern apparatus", "assay_type": "physicochemical", "settings": "micronized material as used", "protocol": "The size of the particles active is determined by measuring the characteristic equivalent sphere diameter, known as volume diameter, by laser diffraction. In the reported examples, the volume diameter has been determined using a Malvern apparatus. However, other equivalent apparatus may be used by the skilled person in the art."}, "[2]": {"assay": "Uniformity of distribution of the active ingredients in the blend (12 samples, HPLC)", "assay_type": "physicochemical", "protocol": "In the context of the present application the flow properties were tested by measuring the flow rate through an orifice according to the method described in the European Pharmacopeia (Eur. Ph.) 8.6, 8th Edition, which is incorporated herein by reference in its entirety. […] It is usually determined according to known methods, for instance by taking samples from different parts of the powder and testing the component by HPLC or other equivalent analytical methods. The uniformity of distribution of the active ingredients was evaluated by withdrawing 12 samples from different parts of the blend and evaluated by HPLC."}},
  "note": "Structures can show the parent of a compound that is named as a salt.",
  "data": [
    {"smiles": "COc1ccc(CC(C)NCC(O)c2ccc(O)c(NC=O)c2)cc1", "note": "(centres unmarked) [FF, formoterol fumarate dihydrate]", "values": [
      {"measurement": "particle size d(v0.1)", "setting": "[1]", "result": 0.9, "unit": "micron"},
      {"measurement": "particle size d(v0.5)", "setting": "[1]", "result": 2.3, "unit": "micron"},
      {"measurement": "particle size d(v0.9)", "setting": "[1]", "result": 4.2, "unit": "micron"},
      {"measurement": "Uniformity of distribution", "setting": "[2]; powder formulation of Example 2 (6 μg FF, 100 μg BDP, 12.5 μg GB per 10 mg carrier), mean value, RSD in next column", "result": 99.4},
      {"measurement": "Uniformity of distribution", "setting": "[2]; powder formulation of Example 3 (6 μg FF, 100 μg BDP, 25 μg GB per 10 mg carrier)", "result": 99.6}
    ]}
  ]
}
